# This is one part of the list.
# Columns and labels:
# Test in all cases: glycan array binding signal (z-score within array); higher = stronger binding
# Details in all cases: glycan notation: IUPAC condensed, linker removed
# [1] = target: Man(a1-2)Man(a1-3)[Man(a1-2)Man(a1-6)]Man
# In short: (§1)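 Glycan array data came from 3228 arrays in the Consortium for Functional Glycomics database, and only arrays with an available protein sequence were kept. Glycan names were put into IUPAC-condensed notation, and columns mapping to the same glycan were averaged. The binding signal is a within-array Z-score, averaged across arrays of one protein sequence run at different concentrations or buffers and across linkers. A negative Z-score can be read as non-binding.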
# [2] = target: Man(a1-2)Man(a1-3)[Man(a1-2)Man(a1-6)]Man(a1-6)[Man(a1-2)Man(a1-2)Man(a1-3)]Man
# In short: as §1
# [3] = target: Man(a1-2)Man(a1-3)[Man(a1-2)Man(a1-6)]Man(a1-6)[Man(a1-2)Man(a1-2)Man(a1-3)]Man(b1-4)GlcNAc(b1-4)GlcNAc
# In short: as §1
# [4] = target: Man(a1-2)Man(a1-3)[Man(a1-6)]Man(a1-6)[Man(a1-2)Man(a1-3)]Man(b1-4)GlcNAc(b1-4)GlcNAc
# In short: as §1
# [5] = target: Man(a1-2)Man(a1-6)[Man(a1-3)]Man(a1-6)[Man(a1-2)Man(a1-2)Man(a1-3)]Man
# In short: as §1
# [6] = target: Man(a1-2)Man(a1-6)[Man(a1-3)]Man(a1-6)[Man(a1-2)Man(a1-2)Man(a1-3)]Man(b1-4)GlcNAc(b1-4)GlcNAc
# In short: as §1
# Man(a1-3)[Man(a1-6)]Man = target: Man(a1-3)[Man(a1-6)]Man
# In short: as §1
# [7] = target: Man(a1-3)[Man(a1-6)]Man(a1-6)[Man(a1-2)Man(a1-3)]Man(b1-4)GlcNAc(b1-4)GlcNAc
# In short: as §1
# [8] = target: Man(a1-3)[Man(a1-6)]Man(a1-6)[Man(a1-3)]Man
# In short: as §1
# [9] = target: Man(a1-3)[Man(a1-6)]Man(a1-6)[Man(a1-3)]Man(b1-4)GlcNAc(b1-4)GlcNAc
# In short: as §1
# [10] = target: Man(a1-3)[Man(a1-6)]Man(b1-4)GlcNAc(b1-4)GlcNAc
# In short: as §1
# [11] = target: Man(a1-3)[Man(a1-6)]Man(b1-4)GlcNAc(b1-4)[Fuc(a1-6)]GlcNAc
# In short: as §1
# Man(a1-6)Man = target: Man(a1-6)Man
# In short: as §1
# Man(b1-4)GlcNAc = target: Man(b1-4)GlcNAc
# In short: as §1
# MurNAc(b1-4)GlcNAc = target: MurNAc(b1-4)GlcNAc
# In short: as §1
# Neu5Ac(a2-3)Gal = target: Neu5Ac(a2-3)Gal
# In short: as §1
# [12] = target: Neu5Ac(a2-3)Gal(b1-3)GalNAc
# In short: as §1
# [13] = target: Neu5Ac(a2-3)Gal(b1-3)GalNAc(b1-3)Gal(a1-4)Gal(b1-4)Glc
# In short: as §1
# [14] = target: Neu5Ac(a2-3)Gal(b1-3)GalNAc(b1-4)Gal(b1-4)Glc
# In short: as §1
# [15] = target: Neu5Ac(a2-3)Gal(b1-3)GalNAc(b1-4)[Neu5Ac(a2-3)]Gal(b1-4)Glc
# In short: as §1
# [16] = target: Neu5Ac(a2-3)Gal(b1-3)GalNAc(b1-4)[Neu5Ac(a2-8)Neu5Ac(a2-3)]Gal(b1-4)Glc
# In short: as §1
# [17] = target: Neu5Ac(a2-3)Gal(b1-3)GalNAc6S
# In short: as §1
# [18] = target: Neu5Ac(a2-3)Gal(b1-3)GlcNAc
# In short: as §1
# [19] = target: Neu5Ac(a2-3)Gal(b1-3)GlcNAc(b1-2)Man
# In short: as §1
# [20] = target: Neu5Ac(a2-3)Gal(b1-3)GlcNAc(b1-2)Man(a1-3)[GlcNAc(b1-4)][Neu5Ac(a2-3)Gal(b1-3)GlcNAc(b1-2)Man(a1-6)]Man(b1-4)GlcNAc(b1-4)GlcNAc
# In short: as §1
# [21] = target: Neu5Ac(a2-3)Gal(b1-3)GlcNAc(b1-2)Man(a1-3)[Neu5Ac(a2-3)Gal(b1-3)GlcNAc(b1-2)Man(a1-6)]Man(b1-4)GlcNAc(b1-4)GlcNAc
# In short: as §1
# [22] = target: Neu5Ac(a2-3)Gal(b1-3)GlcNAc(b1-2)[Neu5Ac(a2-3)Gal(b1-3)GlcNAc(b1-4)]Man(a1-6)[Neu5Ac(a2-3)Gal(b1-3)GlcNAc(b1-2)Man(a1-3)]Man(b1-4)GlcNAc(b1-4)GlcNAc
# In short: as §1
# [23] = target: Neu5Ac(a2-3)Gal(b1-3)GlcNAc(b1-3)Gal(b1-3)GlcNAc
# In short: as §1
# [24] = target: Neu5Ac(a2-3)Gal(b1-3)GlcNAc(b1-3)Gal(b1-4)GlcNAc
# In short: as §1
# [25] = target: Neu5Ac(a2-3)Gal(b1-3)GlcNAc(b1-3)GalNAc
# In short: as §1
# [26] = target: Neu5Ac(a2-3)Gal(b1-3)GlcNAc(b1-6)GalNAc
# In short: as §1
# [27] = target: Neu5Ac(a2-3)Gal(b1-3)GlcNAc6S
# In short: as §1
# [28] = target: Neu5Ac(a2-3)Gal(b1-3)[Fuc(a1-4)]GlcNAc
# In short: as §1
# [29] = target: Neu5Ac(a2-3)Gal(b1-3)[Fuc(a1-4)]GlcNAc(b1-3)Gal(b1-3)[Fuc(a1-4)]GlcNAc
# In short: as §1
# [30] = target: Neu5Ac(a2-3)Gal(b1-3)[Fuc(a1-4)]GlcNAc(b1-3)Gal(b1-4)[Fuc(a1-3)]GlcNAc
# In short: as §1
# [31] = target: Neu5Ac(a2-3)Gal(b1-3)[GlcNAc(b1-6)]GalNAc
# In short: as §1
# [32] = target: Neu5Ac(a2-3)Gal(b1-3)[Neu5Ac(a2-6)]GalNAc
# In short: as §1
binder,measurement,setting,value
Epa19 (Candida glabrata) (protein) MGSSHHHHHHSSGLVPRGSHMASSKDPTRFPIGCSPQVLKTQPGLAVKLYSYGHPVPGCSYITYQYPDFPRSGYKKERKLADITGVNGKIDIDLKPNDPCRVLTGHLPSNYNYPDTLTYTNFTMILYGYFQPKVTGYHTFNLEADDLLFMNLGAGNAFDCCKAESTLDNFGNYQSYSLWGSDYAKANITVFLVSGVYYPIRLFYVNRDNNAVIDFSFTTEFDKEKVHDFTSYFFSASDGEQCPGSV,glycan array binding signal (z-score),[1],-0.465
same,glycan array binding signal (z-score),[2],0.349
same,glycan array binding signal (z-score),[3],-0.05
same,glycan array binding signal (z-score),[4],-0.435
same,glycan array binding signal (z-score),[5],-0.56
same,glycan array binding signal (z-score),[6],-0.373
same,glycan array binding signal (z-score),Man(a1-3)[Man(a1-6)]Man,0.05
same,glycan array binding signal (z-score),[7],-0.076
same,glycan array binding signal (z-score),[8],-0.294
same,glycan array binding signal (z-score),[9],-0.339
same,glycan array binding signal (z-score),[10],-0.163
same,glycan array binding signal (z-score),[11],1.25
same,glycan array binding signal (z-score),Man(a1-6)Man,0.479
same,glycan array binding signal (z-score),Man(b1-4)GlcNAc,0.055
same,glycan array binding signal (z-score),MurNAc(b1-4)GlcNAc,-0.114
same,glycan array binding signal (z-score),Neu5Ac(a2-3)Gal,-0.796
same,glycan array binding signal (z-score),[12],0.466
same,glycan array binding signal (z-score),[13],-0.268
same,glycan array binding signal (z-score),[14],-0.349
same,glycan array binding signal (z-score),[15],-0.086
same,glycan array binding signal (z-score),[16],-0.7
same,glycan array binding signal (z-score),[17],-0.152
same,glycan array binding signal (z-score),[18],-0.364
same,glycan array binding signal (z-score),[19],-1.47
same,glycan array binding signal (z-score),[20],0.855
same,glycan array binding signal (z-score),[21],-0.079
same,glycan array binding signal (z-score),[22],1.93
same,glycan array binding signal (z-score),[23],-1.34
same,glycan array binding signal (z-score),[24],-0.793
same,glycan array binding signal (z-score),[25],-0.142
same,glycan array binding signal (z-score),[26],0.104
same,glycan array binding signal (z-score),[27],0.548
same,glycan array binding signal (z-score),[28],-0.017
same,glycan array binding signal (z-score),[29],-0.524
same,glycan array binding signal (z-score),[30],0.414
same,glycan array binding signal (z-score),[31],-0.681
same,glycan array binding signal (z-score),[32],-0.021

# A stretch from the list above, for reference:
binder,measurement,setting,value
Epa19 (Candida glabrata) (protein) MGSSHHHHHHSSGLVPRGSHMASSKDPTRFPIGCSPQVLKTQPGLAVKLYSYGHPVPGCSYITYQYPDFPRSGYKKERKLADITGVNGKIDIDLKPNDPCRVLTGHLPSNYNYPDTLTYTNFTMILYGYFQPKVTGYHTFNLEADDLLFMNLGAGNAFDCCKAESTLDNFGNYQSYSLWGSDYAKANITVFLVSGVYYPIRLFYVNRDNNAVIDFSFTTEFDKEKVHDFTSYFFSASDGEQCPGSV,glycan array binding signal (z-score),[8],-0.294
same,glycan array binding signal (z-score),[9],-0.339
